From the supplement of paper PMC4635364 come the findings set out here.

The subject of test [1] is ReNCell VM. The experiment in a line: neuronal differentiation score (DCX+ cell fraction vs untreated, manual image score) (score (-3 to 3)); higher = more neuronal differentiation. The note with it: 2 uM, 2 weeks.
In test [2] the test system is ReNCell VM. The experiment in a line: dopaminergic neuron differentiation score (TH+ cell fraction vs untreated, manual image score) (score (0 to 3)); higher = more TH+ dopaminergic neuron differentiation. The note with it: 2 uM, 4 weeks, BDNF 10 ng/ml + GDNF 10 ng/ml.

Structures can show the parent of a compound that is named as a salt. This is one part of the list. This data set is noisy: repeats of one test often differ as much as different tests do.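 ReNCell VM, a human fetal ventral-midbrain neural progenitor line, was differentiated without mitogens. Blinded raters scored images stained for doublecortin (early neurons) or tyrosine hydroxylase (dopaminergic neurons) against untreated wells (0 = no change). Scores were averaged across repeats and both raters, and compounds averaging 2 or more were selected as hits for retesting.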 *1 amine or outer side, *2 acyl side, *3 side chain or, on linkers, in order; H or OH if unused. Where a SMILES comes first, the peptide text is derived from it. Bridges are numbered along the chain shown (N, C = ends). [ ]: non-standard residue; d: D form. The star is where a group is joined. X1 = NC1=N[C@@H]([C@H](N[*:1])C(=O)[*:2])C[C@H](O)N1; ΔAla(Z-3-ureido) = NC(=O)N/C=C(\N)C(=O)O; β3hOrn = NCCC[C@H](N)CC(=O)*; Dap = NC[C@H](N)C(=O)O

`CCCNC(C)(C)COC(=O)c1ccccc1` [Meprylcaine hydrochloride]: the neuronal differentiation score in the test with ReNCell VM [1] (library: Prestwick) was inactive: 0. In addition, the “dopaminergic neuron differentiation score” value in the test with ReNCell VM [2] (library: Prestwick) is inactive: 0.
Regarding `Fc1ccc([C@@H]2CCNC[C@H]2COc2ccc3c(c2)OCO3)cc1`, the neuronal differentiation score in the test with ReNCell VM [1] (library: Spectrum) was inactive: 0. Further, the “dopaminergic neuron differentiation score” value with ReNCell VM [2] (library: Spectrum) was inactive: 0.
Regarding `CCN(CC)CCNc1ccc(CO)c2sc3ccccc3c(=O)c12` [Hycanthone], the neuronal differentiation score in the test with ReNCell VM [1] (library: Prestwick) was inactive: 0. The “dopaminergic neuron differentiation score” value with ReNCell VM [2] (library: Prestwick) is inactive: 0.
Consider `NCCC[C@H](N)CC(=O)N[C@H]1CNC(=O)[C@H]([C@H]2C[C@H](O)NC(N)=N2)NC(=O)/C(=C/NC(N)=O)NC(=O)[C@H](CO)NC(=O)[C@H](CO)NC1=O` [Viomycin sulfate] (β3hOrn-[Dap]SS[ΔAla(Z-3-ureido)][X1]; lactam 1-C), for which the neuronal differentiation score in the test on ReNCell VM [1] (library: Prestwick) is inactive: 0. Further, the “dopaminergic neuron differentiation score” value with ReNCell VM [2] (library: Prestwick) is inactive: 0.
With `CC1(C)CC2C1CCC1(C)OC1CCC2(C)O` (stereo not given), the neuronal differentiation score in the test on ReNCell VM [1] (library: Spectrum) is inactive: 0. Also, in the test with ReNCell VM [2] (library: Spectrum), the “dopaminergic neuron differentiation score” value is inactive: 0.
With `C[C@H](CCC(=O)O)[C@H]1CC[C@H]2[C@@H]3CC[C@@H]4C[C@H](O)CC[C@]4(C)[C@H]3CC[C@]12C`, the neuronal differentiation score in the test with ReNCell VM [1] (library: Spectrum) was inactive: 0. Also, the “dopaminergic neuron differentiation score” value with ReNCell VM [2] (library: Spectrum) is inactive: 0.
With `CCOc1ccc(NC(C)=O)cc1`, in the test on ReNCell VM [1] (library: Spectrum), the neuronal differentiation score was inactive: 0. Further, the “dopaminergic neuron differentiation score” value in the test on ReNCell VM [2] (library: Spectrum) was inactive: 0.
`CN(C)C(=N)NC(=N)N` [Metformin hydrochloride]: the neuronal differentiation score with ReNCell VM [1] (library: Prestwick) is inactive: 0. The “dopaminergic neuron differentiation score” value in the test with ReNCell VM [2] (library: Prestwick) is inactive: 0.
As to `COc1c2occc2cc2ccc(=O)oc12` [Methoxy-8-psoralen], the neuronal differentiation score with ReNCell VM [1] (library: Phytochemical) was inactive: 0. Further, the “dopaminergic neuron differentiation score” value in the test on ReNCell VM [2] (library: Phytochemical) is inactive: 0.
As for `CCC1=C(C)CN(C(=O)NCCc2ccc(S(=O)(=O)NC(=O)N[C@H]3CC[C@H](C)CC3)cc2)C1=O`, in the test with ReNCell VM [1] (library: Spectrum), the neuronal differentiation score was inactive: 1. In addition, the “dopaminergic neuron differentiation score” value in the test on ReNCell VM [2] (library: Spectrum) was inactive: 0.
Regarding `N=C(N)c1ccccc1` [Benzamidine hydrochloride], the neuronal differentiation score with ReNCell VM [1] (library: LOPAC) was inactive: 0. For the same compound, the “dopaminergic neuron differentiation score” value with ReNCell VM [2] (library: LOPAC) was inactive: 0.
Regarding `CC(=O)OC[C@@]1(O)C[C@@]23CC[C@@H]4c5ccoc5CC[C@@]4(C)[C@@H]2CC[C@@H]1C3`, the neuronal differentiation score with ReNCell VM [1] (library: Spectrum) is inactive: 0. Besides, the “dopaminergic neuron differentiation score” value in the test with ReNCell VM [2] (library: Spectrum) was inactive: 0.
`CN(Cc1cnc2nc(N)nc(N)c2n1)c1ccc(C(=O)NC(CCC(=O)O)C(=O)O)cc1` (racemic): in the test on ReNCell VM [1] (library: Spectrum), the neuronal differentiation score was inactive: 0. Besides, the “dopaminergic neuron differentiation score” value in the test with ReNCell VM [2] (library: Spectrum) was inactive: 0.
As to `CN1[C@@H]2CC[C@H]1CC(OC(=O)c1c[nH]c3ccccc13)C2` (stereo not given in full) [3-Tropanyl-indole-3-carboxylate hydrochloride], in the test with ReNCell VM [1] (library: LOPAC), the neuronal differentiation score was inactive: 0. Further, the “dopaminergic neuron differentiation score” value with ReNCell VM [2] (library: LOPAC) was inactive: 0.
In the case of `CCN(CC)CCOCCOC(=O)C(CC)(CC)c1ccccc1`, the neuronal differentiation score in the test on ReNCell VM [1] (library: Spectrum) was inactive: 0. Besides, in the test on ReNCell VM [2] (library: Spectrum), the “dopaminergic neuron differentiation score” value was inactive: 0.
For `Cc1cn[nH]c1`, the neuronal differentiation score with ReNCell VM [1] (library: Spectrum) is inactive: 0. Also, the “dopaminergic neuron differentiation score” value with ReNCell VM [2] (library: Spectrum) was inactive: 0.
Take `O=c1[nH]c2cc(Cl)c(Cl)cc2[nH]c1=O` [6,7-Dichloroquinoxaline-2,3-dione]: the neuronal differentiation score with ReNCell VM [1] (library: LOPAC) was inactive: 0. Moreover, the “dopaminergic neuron differentiation score” value with ReNCell VM [2] (library: LOPAC) is inactive: 1.
As to `CCN1CCC[C@H]1CNC(=O)c1c(O)c(Cl)cc(Cl)c1OC` [S(+)-Raclopride L-tartrate], the neuronal differentiation score in the test with ReNCell VM [1] (library: LOPAC) was inactive: 0. Moreover, the “dopaminergic neuron differentiation score” value in the test with ReNCell VM [2] (library: LOPAC) was inactive: 0.
With `FC(F)(F)C(Cl)Br` (stereo not given), in the test with ReNCell VM [1] (library: Spectrum), the neuronal differentiation score was inactive: 0. The “dopaminergic neuron differentiation score” value in the test with ReNCell VM [2] (library: Spectrum) was inactive: 0.
For `Cn1c([N+](=O)[O-])cnc1COC(N)=O`, the neuronal differentiation score in the test with ReNCell VM [1] (library: Spectrum) is inactive: 0. In addition, the “dopaminergic neuron differentiation score” value with ReNCell VM [2] (library: Spectrum) is inactive: 0.
For `COc1ccc([C@@H]2[C@@H](O)[C@H](O)[C@@H](C)N2C)cc1OC` [codonopsine], the neuronal differentiation score with ReNCell VM [1] (library: Natural) was inactive: 0. Also, the “dopaminergic neuron differentiation score” value in the test with ReNCell VM [2] (library: Natural) is inactive: 0.
As for `S=C(S)N1CCCC1` [Pyrrolidinedithiocarbamate ammonium], the neuronal differentiation score with ReNCell VM [1] (library: Tocriscreen) was inactive: 0. For the same compound, the “dopaminergic neuron differentiation score” value in the test on ReNCell VM [2] (library: Tocriscreen) is inactive: 0.
Take `COc1ccc(OC)c(C(O)CNC(=O)CN)c1` (stereo not given): in the test on ReNCell VM [1] (library: Spectrum), the neuronal differentiation score is inactive: -1. For the same compound, the “dopaminergic neuron differentiation score” value in the test with ReNCell VM [2] (library: Spectrum) is inactive: 0.
Regarding `CC1(C)[C@@H](O)CC[C@]2(C)[C@H]3C(=O)C=C4[C@@H]5C[C@@](C)(C(=O)O)CC[C@]5(C)CC[C@@]4(C)[C@]3(C)CC[C@@H]12`, the neuronal differentiation score with ReNCell VM [1] (library: Spectrum) was inactive: 0. In the test with ReNCell VM [2] (library: Spectrum), the “dopaminergic neuron differentiation score” value is inactive: 0.
Consider `O=C1c2c(O)ccc(O)c2C(=O)c2c(NCCNCCO)ccc(NCCNCCO)c21` [Mitoxantrone], for which the neuronal differentiation score in the test on ReNCell VM [1] (library: LOPAC) is inactive: 0. Moreover, the “dopaminergic neuron differentiation score” value with ReNCell VM [2] (library: LOPAC) is inactive: 0.
As to `CC(C(=O)O)c1cccc(Oc2ccccc2)c1` (stereo not given) [Fenoprofen calcium salt dihydrate], the neuronal differentiation score with ReNCell VM [1] (library: Prestwick) was inactive: 0. Besides, in the test with ReNCell VM [2] (library: Prestwick), the “dopaminergic neuron differentiation score” value was inactive: 0.
For `O=C(/C=C/C=C/c1ccc2c(c1)OCO2)N1CCCCC1`, the neuronal differentiation score with ReNCell VM [1] (library: Spectrum) was inactive: 0. The “dopaminergic neuron differentiation score” value in the test with ReNCell VM [2] (library: Spectrum) is inactive: 0.
Regarding `O=C1CN(/N=C/c2ccc([N+](=O)[O-])o2)C(=O)N1` [Nitrofurantoin], the neuronal differentiation score in the test with ReNCell VM [1] (library: Prestwick) is inactive: 0. For the same compound, the “dopaminergic neuron differentiation score” value with ReNCell VM [2] (library: Prestwick) was inactive: 0.
As to `CC(=O)Nc1ccc(C(=O)O)cc1`, the neuronal differentiation score in the test with ReNCell VM [1] (library: Spectrum) was inactive: 0. Also, the “dopaminergic neuron differentiation score” value in the test with ReNCell VM [2] (library: Spectrum) was inactive: 0.
For the compound `COC(c1ccccc1)(c1ccccc1)[C@H](Oc1nc(C)cc(C)n1)C(=O)O` [Ambrisentan], the neuronal differentiation score in the test on ReNCell VM [1] (library: Prestwick) was inactive: 0. The “dopaminergic neuron differentiation score” value in the test on ReNCell VM [2] (library: Prestwick) was inactive: 0.
`CCN(CC)CCOC(=O)C1(C2CCCCC2)CCCCC1`: the neuronal differentiation score in the test with ReNCell VM [1] (library: Spectrum) is inactive: 0. Further, the “dopaminergic neuron differentiation score” value in the test on ReNCell VM [2] (library: Spectrum) was inactive: 0.
In the case of `Nc1ccc(CCNc2ncnc3c2ncn3C2OC(CO)C(O)C2O)cc1` (stereo not given) [N6-2-(4-Aminophenyl)ethyladenosine], the neuronal differentiation score with ReNCell VM [1] (library: LOPAC) was inactive: -3. Besides, the “dopaminergic neuron differentiation score” value in the test with ReNCell VM [2] (library: LOPAC) is inactive: 0.
Take `O=C(OCCN1CCOCC1)C1(c2ccccc2)CCCCC1` [PRE-084 hydrochloride]: the neuronal differentiation score in the test with ReNCell VM [1] (library: Tocriscreen) is inactive: 0. In the test on ReNCell VM [2] (library: Tocriscreen), the “dopaminergic neuron differentiation score” value is inactive: 0.
On to `CC(NCCC(c1ccccc1)c1ccccc1)c1ccccc1` (stereo not given), for which the neuronal differentiation score in the test with ReNCell VM [1] (library: Spectrum) is inactive: 0. In the test with ReNCell VM [2] (library: Spectrum), the “dopaminergic neuron differentiation score” value is inactive: 0.
For `CC1(C)CC2C1CC[C@]1(C)CCC3C(C(=O)O)CC(=O)O[C@@]32C1` (stereo not given in full) [3-HYDROXY-4-(SUCCIN-2-YL)-CARYOLANE delta-LACTONE], the neuronal differentiation score with ReNCell VM [1] (library: Spectrum) is inactive: 0. In addition, the “dopaminergic neuron differentiation score” value in the test with ReNCell VM [2] (library: Spectrum) was inactive: 0.
